The target of this assay is T1, FLA10-MBP (Chlamydomonas reinhardtii) (UniProt P46869).
T1 sequence: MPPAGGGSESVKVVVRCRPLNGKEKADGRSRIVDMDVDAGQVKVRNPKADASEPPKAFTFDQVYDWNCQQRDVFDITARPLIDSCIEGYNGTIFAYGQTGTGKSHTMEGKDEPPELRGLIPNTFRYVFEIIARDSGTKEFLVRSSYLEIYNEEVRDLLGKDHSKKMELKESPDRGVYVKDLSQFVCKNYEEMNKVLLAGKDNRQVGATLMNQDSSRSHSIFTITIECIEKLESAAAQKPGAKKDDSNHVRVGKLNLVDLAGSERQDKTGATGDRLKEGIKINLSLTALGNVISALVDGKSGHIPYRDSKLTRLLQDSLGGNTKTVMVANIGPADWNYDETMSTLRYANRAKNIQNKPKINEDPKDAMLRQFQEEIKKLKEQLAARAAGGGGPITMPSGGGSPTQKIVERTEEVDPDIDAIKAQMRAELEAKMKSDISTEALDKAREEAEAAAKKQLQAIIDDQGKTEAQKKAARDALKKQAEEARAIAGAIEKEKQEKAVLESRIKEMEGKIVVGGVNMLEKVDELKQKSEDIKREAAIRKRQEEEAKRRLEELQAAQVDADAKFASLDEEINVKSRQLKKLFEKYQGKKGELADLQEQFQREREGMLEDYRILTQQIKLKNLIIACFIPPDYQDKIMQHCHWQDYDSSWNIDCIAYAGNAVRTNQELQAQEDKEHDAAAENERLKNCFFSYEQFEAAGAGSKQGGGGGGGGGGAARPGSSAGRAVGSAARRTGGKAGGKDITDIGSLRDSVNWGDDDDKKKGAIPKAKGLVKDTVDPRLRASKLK
As to the kind of experiment: pull-down; co-purification of FLA10-MBP/FLA8-RFP from Sf9 lysate on an MBP (amylose) column; Coomassie-stained SDS-PAGE.

No constants are given. Whether binding was seen depends on the method and setting. Binding seen in cells or lysates may run through a third protein. Some entries that bind do so weakly or less than the wild type. Sequences can lack the tags named with a protein.

B1: FLA8-RFP (protein, UniProt A7LGV1 1-768)
chain: MASGGECVKVAVRCRPLNGKEKGDNRATIVEVDNKTGQVTLNNPKGDEPPKTFTFDNAFDWNVTQRDVYDVVARPIVNSVMDGYNGTIFAYGQTGTGKTHTMEGFPTPELQGIIPNCFDHVFETVNSSTGKQWMVRASYLEIYNEEVRDLLSKDPKNKLELKEHKDSGVYVKGLNAFVVKGVPELKNVLEVGKKNRSVGATLMNQDSSRSHSIFTITIETIEQTQAQPEGHIRVGKLNLVDLAGSERQSKTGATGDRLKEATKINLSLSALGNVISALVDGKSGHVPYRDSKLTRLLQDSLGGNTKTIMCANMGPADWNYDETLSTLRYANRAKNIKNKPKINEDPKDAMLREFQDEIARLKAALEAEGGALPEGFATGPGGEIIVEKVVQVPKALDASFLEQMRKDMEEQMKKELASQQAAALNDEQLQKVKEEAAAKAKAEAARLEEEKKKAEEEAARMQRKQQKIKAEMDKKSLDAEQIRAEKEALAKKLKAMESKILKGDQAGGLAEVTKKKEEELKRKEQELERRRKEEEEQRKKIQVMEEQQLAMEDKYKDKADEADQKTKKLKKLWKKFQEVNAEVEDMYKEFQREKEDLLESIRMLQDQMQLKDMVIEAFIPPEEVQKVMKRAHWDDEREVWVLERLSDIGKRETAQGASRRPVSASGQRRPTSDFAKLANAMGDMNPRFKSENILNLELDLPERTTYDYEGPGVDPRVQAAINAAFAEDGELIFVGSEQNVHLGDASAAAARPDSAKKRPASARKGTKK
Turning to B1, the binding entry is “binds”.

These data come from PMC7652414.
